Reference: paper PMC10616083
No constants are given. Whether binding was seen depends on the method and setting. Binding seen in cells or lysates may run through a third protein. Some entries that bind do so weakly or less than the wild type.

Chains of the proteins cited; added tags and fusions are not shown. Lines headed by an entry give the natural chain unless they say otherwise; changes in a name come on top. A line that says so, or that is headed by a name, gives the form on record, which may keep a tag or linker.
RUNX1 WT, ectopically expressed (pDsRed1-N1 construct) (Q01196, form named): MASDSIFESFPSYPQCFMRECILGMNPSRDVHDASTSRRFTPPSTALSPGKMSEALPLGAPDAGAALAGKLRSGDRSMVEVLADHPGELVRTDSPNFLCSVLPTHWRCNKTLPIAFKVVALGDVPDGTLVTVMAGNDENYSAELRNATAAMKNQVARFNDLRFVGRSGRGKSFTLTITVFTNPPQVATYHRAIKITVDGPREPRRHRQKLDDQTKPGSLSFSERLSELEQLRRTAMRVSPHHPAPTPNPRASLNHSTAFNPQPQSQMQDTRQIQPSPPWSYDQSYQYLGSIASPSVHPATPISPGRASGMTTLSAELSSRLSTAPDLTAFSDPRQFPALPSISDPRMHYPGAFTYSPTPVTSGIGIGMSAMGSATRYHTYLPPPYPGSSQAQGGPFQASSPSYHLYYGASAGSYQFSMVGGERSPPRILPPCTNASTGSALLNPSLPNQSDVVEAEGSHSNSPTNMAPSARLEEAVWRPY
RUNX1 S94D (phospho-mimetic mutant), ectopically expressed (pDsRed1-N1 construct) (Q01196, form named): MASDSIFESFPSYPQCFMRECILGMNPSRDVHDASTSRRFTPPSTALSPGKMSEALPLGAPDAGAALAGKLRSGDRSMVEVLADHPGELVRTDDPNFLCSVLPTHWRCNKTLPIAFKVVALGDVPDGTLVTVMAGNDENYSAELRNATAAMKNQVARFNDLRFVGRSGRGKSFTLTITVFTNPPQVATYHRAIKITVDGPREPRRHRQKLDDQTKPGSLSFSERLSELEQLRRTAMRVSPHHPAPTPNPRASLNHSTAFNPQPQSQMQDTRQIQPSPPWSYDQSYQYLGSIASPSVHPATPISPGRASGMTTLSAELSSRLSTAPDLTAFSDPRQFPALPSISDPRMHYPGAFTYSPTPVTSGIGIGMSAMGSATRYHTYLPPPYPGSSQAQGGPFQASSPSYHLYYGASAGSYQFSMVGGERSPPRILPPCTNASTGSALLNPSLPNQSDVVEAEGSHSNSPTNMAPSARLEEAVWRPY
UniProt P40763: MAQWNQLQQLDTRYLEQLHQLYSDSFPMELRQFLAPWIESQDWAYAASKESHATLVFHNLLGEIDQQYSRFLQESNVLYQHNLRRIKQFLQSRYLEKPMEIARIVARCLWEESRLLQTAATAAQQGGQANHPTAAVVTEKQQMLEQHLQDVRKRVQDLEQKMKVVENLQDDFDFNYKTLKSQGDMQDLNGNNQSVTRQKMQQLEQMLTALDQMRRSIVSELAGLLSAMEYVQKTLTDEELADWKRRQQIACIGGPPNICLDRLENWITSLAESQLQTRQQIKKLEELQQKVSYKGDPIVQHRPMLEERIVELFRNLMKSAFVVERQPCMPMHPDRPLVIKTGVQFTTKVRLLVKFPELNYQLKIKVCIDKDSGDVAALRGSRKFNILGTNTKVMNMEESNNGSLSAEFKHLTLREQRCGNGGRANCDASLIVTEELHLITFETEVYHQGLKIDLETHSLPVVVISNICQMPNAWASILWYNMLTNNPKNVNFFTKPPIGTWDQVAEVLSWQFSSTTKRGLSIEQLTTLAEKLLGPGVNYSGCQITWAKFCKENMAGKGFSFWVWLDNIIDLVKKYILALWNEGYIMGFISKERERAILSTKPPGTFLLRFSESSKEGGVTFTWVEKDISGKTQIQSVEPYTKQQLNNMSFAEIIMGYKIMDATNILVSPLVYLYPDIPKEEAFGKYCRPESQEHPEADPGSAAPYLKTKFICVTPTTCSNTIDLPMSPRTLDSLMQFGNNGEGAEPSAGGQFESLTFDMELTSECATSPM

Columns and labels:
[1] = target: Runt-related transcription factor 1 (RUNX1), endogenous (human (endogenous in K562, PBMCs)) (UniProt Q01196); assay: co-IP; endogenous proteins, lysates of PBMCs from subjects (500 ug protein) precipitated with RUNX1 antibody, immunoblot; cells with or without metformin (10 mM) for 6 h
[2] = target: Runt-related transcription factor 1 (RUNX1), endogenous (human (endogenous in K562, PBMCs)) (UniProt Q01196); assay: co-IP; endogenous proteins, lysates of imatinib-resistant K562 IR1 and IR2 cells precipitated with RUNX1 antibody, immunoblot; cells untreated or treated with metformin (10 mM), compound C (5 uM), imatinib (1 uM) or metformin plus imatinib for 6 h
[3] = target: Runt-related transcription factor 1 (RUNX1), endogenous (human (endogenous in K562, PBMCs)) (UniProt Q01196); assay: co-IP; endogenous proteins, K562 WT lysate (750 ug protein) precipitated with 1 ug RUNX1 antibody overnight at 4 C, protein A/G plus agarose beads, immunoblot; cells untreated or treated with metformin (10 mM) or compound C (5 uM) for 6 h
[4] = target: RUNX1 WT, ectopically expressed (pDsRed1-N1 construct) (human) (UniProt Q01196); assay: co-IP; HEK-293T cells transfected with RUNX1 WT, S94A or S94D, with or without metformin (10 mM, 6 h, given 48 h after transfection); lysate precipitated with RUNX1 antibody, immunoblot for endogenous STAT3
[5] = target: RUNX1 S94D (phospho-mimetic mutant), ectopically expressed (pDsRed1-N1 construct) (human) (UniProt Q01196); assay: as above

Measured: binding

signal transducer and activator of transcription 3 (STAT3), endogenous (from UniProt P40763 1-770)
binds: all assays above
